Measured values taken from article PMC10899759.
Results are given in words; binding and its absence hold for the method and conditions named. Binding seen in cells or lysates may run through a third protein. Some binding calls cover weakened binding; strength is not graded here.

Chains of the proteins cited; added tags and fusions are not shown. Lines headed by an entry give the natural chain unless they say otherwise; changes in a name come on top.
UniProt Q9UKV8: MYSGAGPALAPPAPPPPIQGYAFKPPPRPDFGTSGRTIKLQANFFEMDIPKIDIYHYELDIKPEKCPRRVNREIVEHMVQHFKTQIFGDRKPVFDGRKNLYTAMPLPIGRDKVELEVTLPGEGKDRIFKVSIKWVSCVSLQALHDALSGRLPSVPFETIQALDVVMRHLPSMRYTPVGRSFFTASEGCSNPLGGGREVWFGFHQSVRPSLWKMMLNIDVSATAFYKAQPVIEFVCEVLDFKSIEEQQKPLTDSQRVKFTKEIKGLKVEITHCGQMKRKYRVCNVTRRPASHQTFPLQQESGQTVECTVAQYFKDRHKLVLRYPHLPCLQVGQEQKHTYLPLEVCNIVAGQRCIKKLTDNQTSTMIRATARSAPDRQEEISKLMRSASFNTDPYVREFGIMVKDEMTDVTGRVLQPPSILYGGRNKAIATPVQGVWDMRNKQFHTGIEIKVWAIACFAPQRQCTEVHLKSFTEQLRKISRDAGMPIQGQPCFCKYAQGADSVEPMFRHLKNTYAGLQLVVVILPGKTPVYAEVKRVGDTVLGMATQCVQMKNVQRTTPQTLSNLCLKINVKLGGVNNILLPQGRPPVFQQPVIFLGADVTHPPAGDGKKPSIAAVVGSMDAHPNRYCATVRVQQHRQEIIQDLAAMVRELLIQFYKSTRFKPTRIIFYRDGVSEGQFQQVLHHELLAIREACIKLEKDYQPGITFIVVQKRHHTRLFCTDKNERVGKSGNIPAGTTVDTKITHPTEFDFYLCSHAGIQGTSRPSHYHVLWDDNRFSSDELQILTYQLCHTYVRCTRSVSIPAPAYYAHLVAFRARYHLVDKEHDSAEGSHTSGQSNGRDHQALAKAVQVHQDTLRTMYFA
UniProt Q8NDV7: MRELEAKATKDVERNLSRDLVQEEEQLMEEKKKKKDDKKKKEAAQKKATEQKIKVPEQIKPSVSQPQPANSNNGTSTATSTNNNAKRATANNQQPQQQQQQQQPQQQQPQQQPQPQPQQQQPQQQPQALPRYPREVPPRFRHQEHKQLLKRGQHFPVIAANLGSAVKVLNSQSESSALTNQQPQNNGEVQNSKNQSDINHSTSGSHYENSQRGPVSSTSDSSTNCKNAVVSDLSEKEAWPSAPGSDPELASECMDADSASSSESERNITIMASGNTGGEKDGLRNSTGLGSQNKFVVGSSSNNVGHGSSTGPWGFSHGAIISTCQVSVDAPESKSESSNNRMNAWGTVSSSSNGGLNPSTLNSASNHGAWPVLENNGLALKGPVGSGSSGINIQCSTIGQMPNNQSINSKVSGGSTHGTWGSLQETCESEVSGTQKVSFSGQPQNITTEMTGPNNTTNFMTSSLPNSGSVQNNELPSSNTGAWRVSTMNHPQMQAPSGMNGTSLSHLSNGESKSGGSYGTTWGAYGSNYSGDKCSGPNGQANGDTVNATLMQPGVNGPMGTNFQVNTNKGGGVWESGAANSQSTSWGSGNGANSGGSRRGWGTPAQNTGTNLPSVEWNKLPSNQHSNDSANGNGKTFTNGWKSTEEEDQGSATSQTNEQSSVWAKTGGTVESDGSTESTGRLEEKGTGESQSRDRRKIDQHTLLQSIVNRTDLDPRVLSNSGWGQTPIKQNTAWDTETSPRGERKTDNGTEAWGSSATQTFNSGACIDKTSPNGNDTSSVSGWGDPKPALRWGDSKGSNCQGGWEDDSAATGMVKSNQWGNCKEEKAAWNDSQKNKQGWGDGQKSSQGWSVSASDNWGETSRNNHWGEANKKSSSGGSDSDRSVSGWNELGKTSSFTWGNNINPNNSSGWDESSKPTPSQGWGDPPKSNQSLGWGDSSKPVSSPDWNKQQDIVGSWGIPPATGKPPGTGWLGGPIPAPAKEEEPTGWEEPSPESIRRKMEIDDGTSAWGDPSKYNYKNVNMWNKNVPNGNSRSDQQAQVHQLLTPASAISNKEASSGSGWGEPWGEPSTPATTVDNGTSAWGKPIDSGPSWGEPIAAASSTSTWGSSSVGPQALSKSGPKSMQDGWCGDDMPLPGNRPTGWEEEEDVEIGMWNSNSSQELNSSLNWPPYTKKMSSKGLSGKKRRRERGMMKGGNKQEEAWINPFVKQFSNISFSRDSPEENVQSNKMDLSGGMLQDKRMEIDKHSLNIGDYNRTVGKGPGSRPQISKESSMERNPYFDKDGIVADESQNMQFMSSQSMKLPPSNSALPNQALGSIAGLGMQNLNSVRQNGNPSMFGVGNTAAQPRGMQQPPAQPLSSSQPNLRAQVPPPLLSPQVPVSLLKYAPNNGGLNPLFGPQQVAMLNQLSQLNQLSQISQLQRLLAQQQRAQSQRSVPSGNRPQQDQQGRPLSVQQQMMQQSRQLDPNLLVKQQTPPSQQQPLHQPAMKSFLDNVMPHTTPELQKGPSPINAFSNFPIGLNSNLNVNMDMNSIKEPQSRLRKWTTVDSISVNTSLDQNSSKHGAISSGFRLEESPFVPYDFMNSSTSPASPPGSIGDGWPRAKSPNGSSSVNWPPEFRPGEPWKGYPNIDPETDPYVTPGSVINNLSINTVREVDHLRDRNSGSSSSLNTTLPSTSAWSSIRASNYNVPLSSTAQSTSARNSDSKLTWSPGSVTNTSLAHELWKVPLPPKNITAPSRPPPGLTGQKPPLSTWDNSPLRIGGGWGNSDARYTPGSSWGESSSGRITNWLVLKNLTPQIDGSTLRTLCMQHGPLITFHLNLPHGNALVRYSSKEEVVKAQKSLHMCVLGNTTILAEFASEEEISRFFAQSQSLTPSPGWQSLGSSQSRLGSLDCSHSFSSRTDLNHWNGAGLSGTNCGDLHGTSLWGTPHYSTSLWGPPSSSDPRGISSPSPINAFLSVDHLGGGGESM

What was measured:
[1] = molecular target: Argonaute 2 (human (endogenous in HCT116)) (UniProt Q9UKV8); experiment: co-IP; reciprocal co-IP from WT HCT116 whole cell lysate at normal confluency (60%, Day 3), without RNase; anti-AGO2 or anti-TNRC6A antibody on Dynabeads Protein G, overnight at 4°C, washes with 400 mM NaCl; rabbit IgG as negative control
[2] = molecular target: Argonaute 2 (human (endogenous in HCT116)) (UniProt Q9UKV8); experiment: condition: only cells grown to high density (near 200% or greater; co-IP at 350%, Day 7), where TNRC6A protein expression is reduced; co-IP; reciprocal co-IP from WT HCT116 whole cell lysate at high confluency (350%, Day 7), without RNase; anti-AGO2 or anti-TNRC6A antibody on Dynabeads Protein G, overnight at 4°C, washes with 400 mM NaCl; rabbit IgG as negative control
[3] = molecular target: Trinucleotide repeat containing protein 6A (human (endogenous in HCT116)) (UniProt Q8NDV7); experiment: co-IP; reciprocal co-IP from WT HCT116 whole cell lysate at normal confluency (60%, Day 3), without RNase; anti-AGO2 or anti-TNRC6A antibody on Dynabeads Protein G, overnight at 4°C, washes with 400 mM NaCl; rabbit IgG as negative control

| Substance | binding [1] | binding [2] | binding [3] |
| --- | --- | --- | --- |
| Trinucleotide repeat containing protein 6A (from UniProt Q8NDV7 1-1962) | binds | no binding | – |
| Argonaute 2 (from UniProt Q9UKV8-1 1-859) | – | – | binds |
